Measured values published in the supplement of paper PMC10849652.
The list shows a part of the results.

Protein sequences, listed by entry. Tags and fused reporters are not part of them. Lines headed by an entry give the natural chain unless they say otherwise; changes in a name come on top.
UniProt Q92902: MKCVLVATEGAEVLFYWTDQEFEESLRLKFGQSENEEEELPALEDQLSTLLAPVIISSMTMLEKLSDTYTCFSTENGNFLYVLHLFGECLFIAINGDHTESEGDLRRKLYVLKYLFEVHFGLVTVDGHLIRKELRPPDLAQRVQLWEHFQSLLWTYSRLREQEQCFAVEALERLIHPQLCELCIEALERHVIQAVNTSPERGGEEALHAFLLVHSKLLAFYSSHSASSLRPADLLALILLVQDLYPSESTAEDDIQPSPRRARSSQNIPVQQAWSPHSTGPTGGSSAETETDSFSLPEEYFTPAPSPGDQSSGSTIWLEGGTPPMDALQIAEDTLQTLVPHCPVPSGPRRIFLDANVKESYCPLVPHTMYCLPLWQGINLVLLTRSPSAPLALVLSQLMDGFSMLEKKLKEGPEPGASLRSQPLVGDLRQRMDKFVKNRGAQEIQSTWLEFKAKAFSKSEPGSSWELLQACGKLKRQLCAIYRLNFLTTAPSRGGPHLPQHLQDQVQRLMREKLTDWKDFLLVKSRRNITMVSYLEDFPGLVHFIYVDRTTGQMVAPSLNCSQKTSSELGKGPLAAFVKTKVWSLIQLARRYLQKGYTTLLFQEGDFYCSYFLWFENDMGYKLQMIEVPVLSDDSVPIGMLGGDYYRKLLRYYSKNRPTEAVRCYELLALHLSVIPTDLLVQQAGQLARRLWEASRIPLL
UniProt Q96EW2: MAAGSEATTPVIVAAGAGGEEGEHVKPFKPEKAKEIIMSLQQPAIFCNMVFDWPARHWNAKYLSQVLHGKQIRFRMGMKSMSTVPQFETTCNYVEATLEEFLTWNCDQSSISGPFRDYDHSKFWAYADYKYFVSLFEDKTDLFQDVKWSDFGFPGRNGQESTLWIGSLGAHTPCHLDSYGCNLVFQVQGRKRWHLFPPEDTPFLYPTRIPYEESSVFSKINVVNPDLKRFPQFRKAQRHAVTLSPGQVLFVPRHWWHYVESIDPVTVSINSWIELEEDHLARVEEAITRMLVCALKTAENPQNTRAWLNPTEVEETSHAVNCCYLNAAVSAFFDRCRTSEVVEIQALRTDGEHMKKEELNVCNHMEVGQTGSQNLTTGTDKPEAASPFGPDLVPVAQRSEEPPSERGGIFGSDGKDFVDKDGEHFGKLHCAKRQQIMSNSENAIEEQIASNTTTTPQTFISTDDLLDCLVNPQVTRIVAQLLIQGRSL
UniProt Q96ED9: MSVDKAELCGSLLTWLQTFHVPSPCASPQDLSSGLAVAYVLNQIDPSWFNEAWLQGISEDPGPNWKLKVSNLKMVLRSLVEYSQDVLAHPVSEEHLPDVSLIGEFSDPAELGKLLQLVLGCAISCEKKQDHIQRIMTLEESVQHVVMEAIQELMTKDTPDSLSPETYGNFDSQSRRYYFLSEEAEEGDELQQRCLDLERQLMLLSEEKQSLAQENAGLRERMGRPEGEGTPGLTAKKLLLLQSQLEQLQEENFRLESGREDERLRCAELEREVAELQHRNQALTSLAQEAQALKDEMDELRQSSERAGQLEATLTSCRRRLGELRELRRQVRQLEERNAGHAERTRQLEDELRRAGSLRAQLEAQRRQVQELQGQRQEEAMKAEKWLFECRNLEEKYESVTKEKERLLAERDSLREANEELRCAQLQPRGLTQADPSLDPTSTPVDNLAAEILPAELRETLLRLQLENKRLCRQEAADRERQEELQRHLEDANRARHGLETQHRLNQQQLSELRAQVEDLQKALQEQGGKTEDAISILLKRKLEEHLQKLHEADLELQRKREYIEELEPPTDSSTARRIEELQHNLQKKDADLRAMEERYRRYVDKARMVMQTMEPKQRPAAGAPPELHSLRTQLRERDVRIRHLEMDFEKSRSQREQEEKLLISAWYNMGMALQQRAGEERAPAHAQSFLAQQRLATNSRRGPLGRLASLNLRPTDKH
UniProt Q00613: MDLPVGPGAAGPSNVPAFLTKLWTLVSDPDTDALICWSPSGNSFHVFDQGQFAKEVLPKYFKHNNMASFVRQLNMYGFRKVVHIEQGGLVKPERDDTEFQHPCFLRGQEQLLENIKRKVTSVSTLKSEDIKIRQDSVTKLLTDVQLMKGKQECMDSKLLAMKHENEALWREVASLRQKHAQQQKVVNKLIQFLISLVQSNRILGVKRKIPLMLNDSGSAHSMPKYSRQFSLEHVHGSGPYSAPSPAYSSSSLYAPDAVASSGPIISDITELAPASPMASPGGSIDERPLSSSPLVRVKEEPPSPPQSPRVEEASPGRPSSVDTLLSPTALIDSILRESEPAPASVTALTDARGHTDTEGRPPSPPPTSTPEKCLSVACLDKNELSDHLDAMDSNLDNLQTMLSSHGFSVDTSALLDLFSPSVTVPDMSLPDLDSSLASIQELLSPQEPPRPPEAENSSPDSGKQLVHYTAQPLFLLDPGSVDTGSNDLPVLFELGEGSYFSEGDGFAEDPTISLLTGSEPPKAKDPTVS
UniProt Q9NSB8: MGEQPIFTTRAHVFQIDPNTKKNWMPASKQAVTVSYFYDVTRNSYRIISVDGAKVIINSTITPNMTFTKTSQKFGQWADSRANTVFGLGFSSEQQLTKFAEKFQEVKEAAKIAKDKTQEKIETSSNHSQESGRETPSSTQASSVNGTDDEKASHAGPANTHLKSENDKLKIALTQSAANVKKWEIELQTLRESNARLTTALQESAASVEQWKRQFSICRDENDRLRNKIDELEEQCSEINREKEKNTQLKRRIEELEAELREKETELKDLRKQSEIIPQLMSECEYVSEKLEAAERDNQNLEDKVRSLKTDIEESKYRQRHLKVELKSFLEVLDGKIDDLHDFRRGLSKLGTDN
UniProt P04439, whole entry, looked up: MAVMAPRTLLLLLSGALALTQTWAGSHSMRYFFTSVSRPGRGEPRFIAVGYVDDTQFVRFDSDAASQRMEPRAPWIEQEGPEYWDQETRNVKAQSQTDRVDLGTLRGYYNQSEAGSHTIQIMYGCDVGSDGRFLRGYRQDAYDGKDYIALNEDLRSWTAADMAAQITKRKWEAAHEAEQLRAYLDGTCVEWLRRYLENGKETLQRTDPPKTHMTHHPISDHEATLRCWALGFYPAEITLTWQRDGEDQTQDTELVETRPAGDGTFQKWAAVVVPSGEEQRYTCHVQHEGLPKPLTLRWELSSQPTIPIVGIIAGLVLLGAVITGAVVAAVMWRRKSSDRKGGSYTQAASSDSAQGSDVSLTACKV
UniProt P28356, whole entry, looked up: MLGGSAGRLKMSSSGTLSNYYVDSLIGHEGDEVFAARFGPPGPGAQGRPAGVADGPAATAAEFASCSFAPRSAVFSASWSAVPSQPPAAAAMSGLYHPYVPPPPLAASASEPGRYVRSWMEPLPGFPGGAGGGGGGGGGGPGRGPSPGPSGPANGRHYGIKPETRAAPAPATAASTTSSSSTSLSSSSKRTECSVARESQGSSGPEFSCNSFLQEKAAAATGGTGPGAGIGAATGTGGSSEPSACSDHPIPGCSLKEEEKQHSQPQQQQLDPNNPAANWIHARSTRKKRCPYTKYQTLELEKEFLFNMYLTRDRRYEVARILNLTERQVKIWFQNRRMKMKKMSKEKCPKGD
UniProt Q05084: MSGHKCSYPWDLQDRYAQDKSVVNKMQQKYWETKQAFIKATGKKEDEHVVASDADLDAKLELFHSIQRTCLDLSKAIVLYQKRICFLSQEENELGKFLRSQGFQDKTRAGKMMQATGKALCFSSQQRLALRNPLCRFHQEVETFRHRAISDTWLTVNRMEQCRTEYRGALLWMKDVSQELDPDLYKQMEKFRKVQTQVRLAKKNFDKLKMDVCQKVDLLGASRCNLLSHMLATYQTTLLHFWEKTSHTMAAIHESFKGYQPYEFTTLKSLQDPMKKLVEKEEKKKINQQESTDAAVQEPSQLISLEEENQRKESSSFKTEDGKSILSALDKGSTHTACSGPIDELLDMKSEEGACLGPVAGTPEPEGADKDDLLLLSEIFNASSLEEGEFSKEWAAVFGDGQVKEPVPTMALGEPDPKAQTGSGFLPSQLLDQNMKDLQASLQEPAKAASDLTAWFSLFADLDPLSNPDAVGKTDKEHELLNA
UniProt Q00839, whole entry, looked up: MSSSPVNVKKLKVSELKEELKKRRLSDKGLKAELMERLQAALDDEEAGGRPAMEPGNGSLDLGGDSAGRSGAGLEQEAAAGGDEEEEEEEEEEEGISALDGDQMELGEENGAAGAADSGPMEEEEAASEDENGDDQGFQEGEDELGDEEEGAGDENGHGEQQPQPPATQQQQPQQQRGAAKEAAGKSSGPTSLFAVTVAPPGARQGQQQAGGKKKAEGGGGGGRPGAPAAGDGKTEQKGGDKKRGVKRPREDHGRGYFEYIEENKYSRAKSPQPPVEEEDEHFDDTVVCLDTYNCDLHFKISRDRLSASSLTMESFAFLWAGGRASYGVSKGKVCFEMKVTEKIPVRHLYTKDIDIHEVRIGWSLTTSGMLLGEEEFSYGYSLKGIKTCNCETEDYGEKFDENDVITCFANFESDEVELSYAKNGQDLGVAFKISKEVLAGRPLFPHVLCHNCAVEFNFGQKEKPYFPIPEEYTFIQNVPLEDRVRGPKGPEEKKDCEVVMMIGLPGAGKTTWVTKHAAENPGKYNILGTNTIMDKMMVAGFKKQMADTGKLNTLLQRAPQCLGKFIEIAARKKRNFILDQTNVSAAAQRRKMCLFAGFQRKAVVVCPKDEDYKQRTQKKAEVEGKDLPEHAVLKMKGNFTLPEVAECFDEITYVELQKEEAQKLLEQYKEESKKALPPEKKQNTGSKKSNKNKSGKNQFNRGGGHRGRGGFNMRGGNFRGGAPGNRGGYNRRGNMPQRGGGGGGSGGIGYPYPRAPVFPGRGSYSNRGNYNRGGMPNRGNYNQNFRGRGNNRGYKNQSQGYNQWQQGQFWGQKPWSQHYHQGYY
UniProt Q9NQG7: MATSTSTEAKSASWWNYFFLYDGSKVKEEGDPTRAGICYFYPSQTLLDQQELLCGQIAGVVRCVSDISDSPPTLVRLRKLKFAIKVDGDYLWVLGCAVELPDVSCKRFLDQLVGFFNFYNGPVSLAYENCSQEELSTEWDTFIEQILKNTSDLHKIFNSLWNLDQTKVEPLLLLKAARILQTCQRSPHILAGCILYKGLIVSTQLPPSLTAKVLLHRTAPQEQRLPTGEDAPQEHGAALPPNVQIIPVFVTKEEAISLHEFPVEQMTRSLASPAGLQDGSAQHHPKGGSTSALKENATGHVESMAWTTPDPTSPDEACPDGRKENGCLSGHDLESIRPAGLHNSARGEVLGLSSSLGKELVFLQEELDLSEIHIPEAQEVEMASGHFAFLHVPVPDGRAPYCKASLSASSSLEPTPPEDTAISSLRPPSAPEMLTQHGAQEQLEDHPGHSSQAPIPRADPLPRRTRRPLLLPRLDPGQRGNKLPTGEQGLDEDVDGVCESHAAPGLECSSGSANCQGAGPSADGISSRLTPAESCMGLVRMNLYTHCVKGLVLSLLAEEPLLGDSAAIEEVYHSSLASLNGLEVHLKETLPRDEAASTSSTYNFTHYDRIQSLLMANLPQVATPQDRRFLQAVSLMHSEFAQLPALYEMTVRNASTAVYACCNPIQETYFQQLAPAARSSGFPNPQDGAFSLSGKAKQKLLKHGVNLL
UniProt P41134: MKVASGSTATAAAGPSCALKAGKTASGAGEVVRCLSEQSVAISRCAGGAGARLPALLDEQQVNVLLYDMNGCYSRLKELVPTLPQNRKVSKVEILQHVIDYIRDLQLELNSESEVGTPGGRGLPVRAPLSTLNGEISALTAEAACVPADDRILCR
UniProt Q96FZ2: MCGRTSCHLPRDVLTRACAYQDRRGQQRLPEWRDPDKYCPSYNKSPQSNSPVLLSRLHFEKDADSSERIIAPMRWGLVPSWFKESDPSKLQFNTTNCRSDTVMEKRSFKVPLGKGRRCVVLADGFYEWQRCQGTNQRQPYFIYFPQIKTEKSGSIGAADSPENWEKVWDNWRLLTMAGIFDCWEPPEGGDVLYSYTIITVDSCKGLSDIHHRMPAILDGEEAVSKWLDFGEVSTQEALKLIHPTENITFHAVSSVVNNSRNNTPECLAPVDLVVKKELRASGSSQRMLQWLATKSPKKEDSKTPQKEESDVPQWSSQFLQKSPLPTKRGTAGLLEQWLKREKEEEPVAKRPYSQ
UniProt Q9NWT6: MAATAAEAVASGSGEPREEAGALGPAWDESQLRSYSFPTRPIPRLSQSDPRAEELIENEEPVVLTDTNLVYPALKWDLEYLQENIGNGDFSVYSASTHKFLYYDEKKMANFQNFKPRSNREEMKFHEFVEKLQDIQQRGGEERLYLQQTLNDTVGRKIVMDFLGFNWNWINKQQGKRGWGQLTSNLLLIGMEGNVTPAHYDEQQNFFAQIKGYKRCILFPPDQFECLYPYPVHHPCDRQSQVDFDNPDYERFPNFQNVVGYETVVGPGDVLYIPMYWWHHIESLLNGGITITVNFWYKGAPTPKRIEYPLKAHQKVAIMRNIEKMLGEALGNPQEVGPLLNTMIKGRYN

These targets were tested with C[C@H](C1=CC=C(C=C1)C(=O)NC2=C3C=CNC3=NC=C2)N (assay: log2 fold change, soluble protein after heating vs DMSO (PISA); higher = thermal stabilisation; K562 cells, 10 uM, 30 min; active = over 0.2 and 3.5 SD of the protein, either way, in both replicates (recomputed)).
How it was run: (§1)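 Soluble protein was defined as the supernatant after 21,000xg for 90 min. It came from K562 cells at 2×10^6 cells/mL given 10 μM compound for 30 min, heated in aliquots for 3 min across 48°C-58°C, pooled, and extracted in PBS with 0.5% NP-40 at 4°C, and was quantified by TMTpro 16plex LC-MS/MS with equalised channel sums. Thermal stability against control samples, from duplicates, is reported as log2 fold change.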

log2 fold change, inactive:
ICE2 (UniProt Q659A1) 0.201
HMG20B (UniProt Q9P0W2) -0.224
HPS1 (UniProt Q92902) 0.175
HSPBAP1 (UniProt Q96EW2) 0.094
HOOK2 (UniProt Q96ED9) -0.074
HMBS (UniProt F5H226) 0.193
HMGN5 (UniProt Q5JSK9) 0.33
HSF1 (UniProt Q00613) 0.032
HTR1F (UniProt P30939) -0.014
HOMER3 (UniProt Q9NSC5) -0.082
HMGXB4 (UniProt Q9UGU5) 0.074
HNRNPUL1 (UniProt M0R247) 0.722
HYOU1, A0A494C039 0.065
HOMER2 (UniProt Q9NSB8) 0.088
HLA-A isoform 2 (UniProt P04439) 0.262
HOXD9 (UniProt P28356) 0.006
ICA1 isoform 2 (UniProt Q05084) 0.054
HUWE1 isoform 2 (UniProt Q7Z6Z7) -0.336
HTD2 (UniProt P86397) -0.297
HIST2H2AA3 (UniProt Q6FI13) 0.517

Each target was assayed with C[C@H](Nc1ncnc2nc[nH]c12)c1cc2cccc(Cl)c2c(=O)n1-c1ccccc1 [duvelisib] in the same assay as above.
How it was run: as §1

log2 fold change, inactive:
HNRNPU isoform 2 (UniProt Q00839) -0.131
HMGN5 (UniProt Q5JSK9) 0.146
HPS4 isoform 4 (UniProt Q9NQG7) 0.062
HSF1 (UniProt Q00613) -0.02
ID1 (UniProt P41134) 0.038
HMCES (UniProt Q96FZ2) 0.202
HYOU1, A0A494C039 -0.052
HPF1 (UniProt Q9NWY4) -0.119
HLA-A isoform 2 (UniProt P04439) -0.024
HIF1AN (UniProt Q9NWT6) 0.024
HOOK1 (UniProt Q9UJC3) 0.074
HOXD9 (UniProt P28356) 0.04
ICA1 isoform 2 (UniProt Q05084) -0.138
HUWE1 isoform 2 (UniProt Q7Z6Z7) 0.007
HIST2H2AA3 (UniProt Q6FI13) 0.364

What follows are targets tested with Cc1cc(Nc2cc(CN3CCOCC3)c3nc(C)c(Cc4ccc(Cl)cc4F)n3n2)n[nH]1 [gandotinib] in the same assay as above.
How it was run: as §1

log2 fold change, inactive:
ICE2 (UniProt Q659A1) 0.136
HMG20B (UniProt Q9P0W2) -0.128
HMBS (UniProt F5H226) 0.107
HMGN5 (UniProt Q5JSK9) -0.155
HPS4 isoform 4 (UniProt Q9NQG7) 0.282
HSF1 (UniProt Q00613) -0.211
HTR1F (UniProt P30939) -0.329
HYOU1, A0A494C039 -0.045
HIF1AN (UniProt Q9NWT6) -0.019
HOXD9 (UniProt P28356) -0.113
ICA1 isoform 2 (UniProt Q05084) -0.101
HTD2 (UniProt P86397) 0.122
HIST2H2AA3 (UniProt Q6FI13) 0.119

These targets were tested with Cc1cc(Nc2cc(N3CCN(C)CC3)nc(Sc3ccc(NC(=O)C4CC4)cc3)n2)n[nH]1 [tozasertib] in the same assay as above.
How it was run: as §1

log2 fold change, inactive:
HPS1 (UniProt Q92902) -0.049
HSP90AA2P (UniProt Q14568) -0.064
HNRNPU isoform 2 (UniProt Q00839) 0.066
HOOK2 (UniProt Q96ED9) -0.304
HMBS (UniProt F5H226) -0.045
HMGN5 (UniProt Q5JSK9) -0.088
HPS4 isoform 4 (UniProt Q9NQG7) -0.048
HSF1 (UniProt Q00613) -0.064
ID1 (UniProt P41134) 0.013
HMCES (UniProt Q96FZ2) -0.077
HYOU1, A0A494C039 0.211
HOMER2 (UniProt Q9NSB8) -0.051
HIF1AN (UniProt Q9NWT6) -0.052
HIST2H2AA3 (UniProt Q6FI13) 0.089

These targets were tested with Cc1cc(SCc2sc(-c3ccc(C(F)(F)F)cc3)nc2C)ccc1OCC(=O)O in the same assay as above.
How it was run: as §1

log2 fold change, inactive:
HNRNPU isoform 2 (UniProt Q00839) 0.076
HMGN5 (UniProt Q5JSK9) -0.015
HPS4 isoform 4 (UniProt Q9NQG7) 0.116
HSF1 (UniProt Q00613) 0.182
ID1 (UniProt P41134) 0.332
HNRNPUL1 (UniProt M0R247) -0.374
HMCES (UniProt Q96FZ2) 0.12
HYOU1, A0A494C039 -0.033
HPF1 (UniProt Q9NWY4) -0.054
HLA-A isoform 2 (UniProt P04439) -0.012
HIF1AN (UniProt Q9NWT6) 0.043
HOOK1 (UniProt Q9UJC3) -0.098
HOXD9 (UniProt P28356) 0.077
ICA1 isoform 2 (UniProt Q05084) 0.064
HUWE1 isoform 2 (UniProt Q7Z6Z7) 0.016
HIST2H2AA3 (UniProt Q6FI13) 0.31
